For this assay, the target named is EIAV Env of the virulent strain (EIAV_DLV34), in infected macrophages (EIAV, virulent strain EIAV_DLV34). Briefly: affinity purification with mass spectrometry; anti-Env magnetic beads on lysate (1% Triton X-100, 50 mM Tris-HCl pH 7.4, 150 mM NaCl) of eMDMs three days after EIAV infection, 2 h at 4 °C; eluted with an Env epitope peptide; gel bands analysed by mass spectrometry.

Here are results for 1 molecule from PMC12187018.

No constants are given. Whether binding was seen depends on the method and setting. Binding seen in cells or lysates may run through a third protein. A yes stands for co-enrichment or nearness to the bait. Other partners may have been found.

B1: P2X7 (R), endogenous in equine macrophages (receptor, UniProt F6Q5L6 1-561)
chain: MPACCSWNDVFQYETNKVTRIQSMNYGTIKWICHLIVFSYVIFALVSDKRYQRKEPLISSVHTKVKGIAEVREEIIESGAKKVVQSVFDTADYTFPLQGNSFFVMTNFLKTEGQEQGLCPEYPTRRTLCSSDRGCKKGWMDPQSKGIQTGRCIVYKGNQKTCEVSAWCPIEAVEEAPRPALLNSAENFTVLIKNNIDFPGHNYTTRNFLPGLNITCTFHKTQNPQCPIFRLGDIFRETGDHFSDVAIQGGIMGIEIYWDCNLDRWFHHCRPKYSFRRLDDKTASESSYPGYNFRYAKYYKENNVEKRTLIKVFGIRFDILVFGTGGKFDIIQLIVFVGSTLSYFGLATLFIDFLINTYSSKFCRSSIYPCCKYCEPCSVNEYYYRKKCESIVEPKPRPSMDFTDLSRLPLSLQDPHVTPGQPEDIQLLSEEVTPRHKDSPHWCQCGNCLPSQLPESHRCLEELCCRKKMGACITTSEPFRKLVLSRRVLQFLLLYREPLLVLDADSTNSQLRHCAYRCYATWRFGSQDLADFAILPSCCRWRIRREFPRSEGQYSGFKSPY
Consider B1, for which the binding entry is “binds”.
